For part of these data: Negatives hold for the conditions tested. Tags and fusion partners may be left off the protein sequences shown. For part of these data: Construct, isoform or probe ends are uncertain for at least one entry. For part of these data: Weaker means in comparison with the reference protein, sequence or condition of that experiment.

Data set [1] addresses T1, Mss116 helicase core D1D2 (UniProt P15424).
T1 sequence (looked up): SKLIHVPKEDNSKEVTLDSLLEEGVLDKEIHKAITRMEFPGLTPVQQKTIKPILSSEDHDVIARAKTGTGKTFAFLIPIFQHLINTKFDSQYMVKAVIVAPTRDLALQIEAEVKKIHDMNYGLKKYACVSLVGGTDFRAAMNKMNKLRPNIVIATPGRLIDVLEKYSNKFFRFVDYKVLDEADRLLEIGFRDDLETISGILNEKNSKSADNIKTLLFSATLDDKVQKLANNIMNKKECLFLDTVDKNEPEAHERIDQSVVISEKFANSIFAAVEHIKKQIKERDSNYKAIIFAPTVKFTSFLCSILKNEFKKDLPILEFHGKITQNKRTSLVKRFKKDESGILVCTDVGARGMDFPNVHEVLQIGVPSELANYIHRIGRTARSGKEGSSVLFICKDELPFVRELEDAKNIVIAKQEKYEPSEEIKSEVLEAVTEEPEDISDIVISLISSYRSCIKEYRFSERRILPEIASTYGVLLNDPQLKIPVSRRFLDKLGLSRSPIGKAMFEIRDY
The experiment in a line: SEC. The conditions noted are these: 5 mM UDP-BeFx, A260/A280 1.0, open, complex not maintained; 20 mM Tris-HCl pH 7.5, 100 mM KCl, 10% glycerol, 1 mM DTT, 5 mM MgCl2, 0.1 mg/ml BSA, 22 C, >=1 h; SEC with 200 mM KCl, no BSA; recombinant protein; residues 88-597.

Data set [2] concerns the target T2, Mss116 helicase core D1D2, MBP-tagged (UniProt P15424).
T2 sequence (looked up): T1 sequence (looked up)
The experiment in a line: fluorescence anisotropy. The conditions noted are these: no stable closed state, 20 mM Tris-HCl pH 7.5, 100 mM KCl, 10% glycerol, 1 mM DTT, 5 mM MgCl2, 0.1 mg/ml BSA, 22 C, >=1 h, SEC with 200 mM KCl, recombinant protein, residues 88-597, protein details: N-terminal MBP (MalE), label: 5' FAM. For orientation: In fluorescence polarisation assays a small probe gives low polarisation when free and higher when bound to something large.

Regarding AAAAAAAAAA [A10-RNA], the binding result in data set [1] was “binds more weakly”.

As for AAAAAAAAAA [A10-RNA, 5' FAM], the binding result in data set [2] (10 mM ADP + Pi 0-100 mM) and in data set [2] (ADP 0-10 mM) was “no binding” each time.

The record behind these values is publication PMC4383044, “Molecular insights into RNA and DNA helicase evolution from the determinants of specificity for a DEAD-box RNA helicase” (eLife, 2014).
